Reference: paper PMC8789826
Results are given in words; binding and its absence hold for the method and conditions named. For some of these results: Binding seen in cells or lysates may run through a third protein. Some binding calls cover weakened binding; strength is not graded here.

By UniProt entry, the sequences of proteins in these tests, tags left out. Where a name states a change or a piece, a line headed by the entry shows the natural chain unless it says otherwise. Residues count along the entry.
UniProt Q9UGJ1: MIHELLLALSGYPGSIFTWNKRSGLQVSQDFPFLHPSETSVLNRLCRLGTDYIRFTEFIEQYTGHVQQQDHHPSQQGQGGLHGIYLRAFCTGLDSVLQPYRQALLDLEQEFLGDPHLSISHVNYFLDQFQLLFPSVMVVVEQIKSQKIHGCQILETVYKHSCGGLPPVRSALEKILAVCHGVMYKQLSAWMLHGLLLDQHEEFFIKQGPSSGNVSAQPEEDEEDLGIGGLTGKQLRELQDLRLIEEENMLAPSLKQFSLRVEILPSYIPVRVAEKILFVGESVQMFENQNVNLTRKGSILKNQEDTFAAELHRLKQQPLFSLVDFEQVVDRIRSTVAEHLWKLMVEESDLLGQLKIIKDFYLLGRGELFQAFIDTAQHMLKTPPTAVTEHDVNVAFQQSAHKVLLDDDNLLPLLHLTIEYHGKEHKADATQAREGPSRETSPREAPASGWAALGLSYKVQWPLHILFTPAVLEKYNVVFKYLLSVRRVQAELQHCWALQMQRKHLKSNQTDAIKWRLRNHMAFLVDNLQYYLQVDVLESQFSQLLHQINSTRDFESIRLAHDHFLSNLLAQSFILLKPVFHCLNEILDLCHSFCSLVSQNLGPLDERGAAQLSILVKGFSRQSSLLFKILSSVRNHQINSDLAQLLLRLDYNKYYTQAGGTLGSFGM
UniProt Q96RT8: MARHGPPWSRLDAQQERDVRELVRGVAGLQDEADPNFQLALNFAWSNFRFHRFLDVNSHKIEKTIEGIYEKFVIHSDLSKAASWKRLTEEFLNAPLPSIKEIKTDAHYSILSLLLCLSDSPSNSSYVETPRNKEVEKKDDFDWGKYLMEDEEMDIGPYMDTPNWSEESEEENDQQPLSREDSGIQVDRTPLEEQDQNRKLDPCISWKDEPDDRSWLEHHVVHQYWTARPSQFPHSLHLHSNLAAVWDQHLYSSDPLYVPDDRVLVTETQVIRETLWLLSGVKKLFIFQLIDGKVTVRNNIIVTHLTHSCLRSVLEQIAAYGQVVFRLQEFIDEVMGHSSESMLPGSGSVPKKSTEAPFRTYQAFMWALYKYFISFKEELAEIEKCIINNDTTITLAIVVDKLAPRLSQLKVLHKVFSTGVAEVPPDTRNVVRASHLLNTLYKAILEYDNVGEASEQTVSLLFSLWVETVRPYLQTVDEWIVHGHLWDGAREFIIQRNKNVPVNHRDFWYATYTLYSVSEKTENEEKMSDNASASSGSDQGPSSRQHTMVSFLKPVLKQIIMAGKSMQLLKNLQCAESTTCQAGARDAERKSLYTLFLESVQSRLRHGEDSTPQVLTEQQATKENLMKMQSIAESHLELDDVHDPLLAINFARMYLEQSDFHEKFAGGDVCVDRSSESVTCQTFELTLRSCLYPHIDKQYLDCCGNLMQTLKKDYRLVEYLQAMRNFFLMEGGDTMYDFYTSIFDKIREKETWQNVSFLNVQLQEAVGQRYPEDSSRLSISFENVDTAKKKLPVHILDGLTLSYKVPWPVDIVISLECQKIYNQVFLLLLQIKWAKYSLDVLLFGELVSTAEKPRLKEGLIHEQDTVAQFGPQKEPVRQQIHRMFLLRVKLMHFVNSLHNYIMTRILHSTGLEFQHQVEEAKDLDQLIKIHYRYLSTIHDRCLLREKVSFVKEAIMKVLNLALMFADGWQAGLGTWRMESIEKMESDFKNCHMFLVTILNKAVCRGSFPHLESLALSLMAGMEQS
UniProt Q96RT7: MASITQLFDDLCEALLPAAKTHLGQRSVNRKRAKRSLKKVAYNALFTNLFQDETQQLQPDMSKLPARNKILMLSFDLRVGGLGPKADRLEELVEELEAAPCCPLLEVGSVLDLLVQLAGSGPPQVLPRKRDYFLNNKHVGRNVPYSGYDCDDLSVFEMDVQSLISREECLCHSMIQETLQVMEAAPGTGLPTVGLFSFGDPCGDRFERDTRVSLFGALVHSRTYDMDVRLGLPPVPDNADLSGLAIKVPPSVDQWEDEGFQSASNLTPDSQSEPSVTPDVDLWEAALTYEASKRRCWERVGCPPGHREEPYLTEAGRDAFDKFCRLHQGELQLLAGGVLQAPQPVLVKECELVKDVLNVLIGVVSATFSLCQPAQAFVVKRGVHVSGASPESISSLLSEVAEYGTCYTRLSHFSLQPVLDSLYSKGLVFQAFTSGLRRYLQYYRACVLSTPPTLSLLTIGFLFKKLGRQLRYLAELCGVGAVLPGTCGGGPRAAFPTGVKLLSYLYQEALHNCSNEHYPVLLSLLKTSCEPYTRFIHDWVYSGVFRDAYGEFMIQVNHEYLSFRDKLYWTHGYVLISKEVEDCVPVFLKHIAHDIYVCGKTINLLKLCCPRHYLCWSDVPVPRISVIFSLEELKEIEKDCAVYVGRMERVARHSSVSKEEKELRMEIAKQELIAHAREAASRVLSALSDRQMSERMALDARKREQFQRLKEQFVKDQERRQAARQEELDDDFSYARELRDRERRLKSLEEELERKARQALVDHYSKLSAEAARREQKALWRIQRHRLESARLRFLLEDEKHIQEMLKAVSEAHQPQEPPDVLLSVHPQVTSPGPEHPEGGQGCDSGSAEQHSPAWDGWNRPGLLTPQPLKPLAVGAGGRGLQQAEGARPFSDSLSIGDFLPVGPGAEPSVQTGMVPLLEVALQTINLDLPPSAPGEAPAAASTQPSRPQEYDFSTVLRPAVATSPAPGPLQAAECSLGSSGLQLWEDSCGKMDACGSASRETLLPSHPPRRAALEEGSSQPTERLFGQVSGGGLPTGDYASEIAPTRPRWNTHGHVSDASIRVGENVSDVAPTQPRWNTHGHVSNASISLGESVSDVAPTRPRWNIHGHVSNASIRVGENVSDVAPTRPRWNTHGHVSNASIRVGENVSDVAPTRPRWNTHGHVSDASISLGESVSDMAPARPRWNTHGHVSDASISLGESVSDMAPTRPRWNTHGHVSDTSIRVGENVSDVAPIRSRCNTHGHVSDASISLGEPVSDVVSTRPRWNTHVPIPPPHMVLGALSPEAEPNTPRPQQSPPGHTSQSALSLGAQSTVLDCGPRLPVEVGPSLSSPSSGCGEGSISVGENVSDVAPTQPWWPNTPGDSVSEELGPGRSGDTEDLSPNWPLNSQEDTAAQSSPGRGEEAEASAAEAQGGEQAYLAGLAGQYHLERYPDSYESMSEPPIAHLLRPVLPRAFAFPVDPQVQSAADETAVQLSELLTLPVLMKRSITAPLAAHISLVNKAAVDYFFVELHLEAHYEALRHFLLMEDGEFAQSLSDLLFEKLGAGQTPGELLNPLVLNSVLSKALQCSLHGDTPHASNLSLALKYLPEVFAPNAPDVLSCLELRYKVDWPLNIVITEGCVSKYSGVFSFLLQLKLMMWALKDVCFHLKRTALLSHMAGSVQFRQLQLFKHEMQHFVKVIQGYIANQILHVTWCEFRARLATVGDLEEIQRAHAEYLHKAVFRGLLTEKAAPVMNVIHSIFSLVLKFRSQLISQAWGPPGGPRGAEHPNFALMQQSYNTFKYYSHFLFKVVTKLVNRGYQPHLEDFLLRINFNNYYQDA
ΔN56-GCP6: residues 57-1819 of Q96RT7
UniProt Q96CW5: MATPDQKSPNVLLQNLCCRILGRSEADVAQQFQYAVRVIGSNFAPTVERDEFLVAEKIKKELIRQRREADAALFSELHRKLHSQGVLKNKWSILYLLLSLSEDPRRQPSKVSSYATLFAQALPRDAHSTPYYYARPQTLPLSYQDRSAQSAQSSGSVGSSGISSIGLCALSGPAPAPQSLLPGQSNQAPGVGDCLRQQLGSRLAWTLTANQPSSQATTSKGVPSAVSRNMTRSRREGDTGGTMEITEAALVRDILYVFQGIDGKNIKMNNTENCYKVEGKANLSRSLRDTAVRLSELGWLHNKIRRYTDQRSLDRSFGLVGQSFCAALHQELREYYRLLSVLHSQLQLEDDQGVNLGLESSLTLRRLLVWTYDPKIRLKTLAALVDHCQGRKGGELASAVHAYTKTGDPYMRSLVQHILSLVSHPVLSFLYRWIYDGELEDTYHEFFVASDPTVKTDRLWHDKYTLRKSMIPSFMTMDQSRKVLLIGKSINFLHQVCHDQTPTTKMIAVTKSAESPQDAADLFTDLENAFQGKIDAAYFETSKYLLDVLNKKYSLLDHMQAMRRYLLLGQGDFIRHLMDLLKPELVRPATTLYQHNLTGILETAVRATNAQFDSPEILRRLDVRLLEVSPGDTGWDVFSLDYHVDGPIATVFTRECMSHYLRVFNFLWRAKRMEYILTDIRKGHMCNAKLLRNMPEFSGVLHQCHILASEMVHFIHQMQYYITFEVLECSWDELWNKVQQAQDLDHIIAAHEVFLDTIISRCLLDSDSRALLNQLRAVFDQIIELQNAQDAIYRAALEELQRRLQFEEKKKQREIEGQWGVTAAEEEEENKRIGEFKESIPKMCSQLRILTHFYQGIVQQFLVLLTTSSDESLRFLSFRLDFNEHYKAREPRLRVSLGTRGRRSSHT
UniProt Q08AG7: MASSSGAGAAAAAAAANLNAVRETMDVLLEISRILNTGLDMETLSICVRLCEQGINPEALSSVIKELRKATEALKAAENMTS

Legend:
GCP4 (TUBGCP4) (human) = GCP4 (TUBGCP4) (human) (UniProt Q9UGJ1); test: cryo-EM structure; recombinant human wild-type γ-TuRC and its assembly intermediates (6 to 14 spokes), purified from Sf21 cells via 2xFLAG-GCP5; single-particle analysis, 5.3-16.1 Å; published atomic models fitted as rigid bodies and flexibly fitted; both purified
[1] = molecular target: 2xFLAG-GCP5 (2xFLAG-TUBGCP5) (human) (UniProt Q96RT8); test: co-IP; γ-TuRC^∆GCP2/3 from Sf21 lysate on Anti-FLAG M2 Affinity Gel via 2xFLAG-GCP5, eluted with 3xFLAG peptide; Coomassie-stained SDS-PAGE and immunoblot
[2] = molecular target: GCP6 (TUBGCP6), full-length (human) (UniProt Q96RT7); test: cryo-EM structure; recombinant human wild-type γ-TuRC and its assembly intermediates (6 to 14 spokes), purified from Sf21 cells via 2xFLAG-GCP5; single-particle analysis, 5.3-16.1 Å; published atomic models fitted as rigid bodies and flexibly fitted; both purified
[3] = molecular target: 2xFLAG-GCP5 (2xFLAG-TUBGCP5) (human) (UniProt Q96RT8); test: as above
ΔN56-GCP6 (human) = ΔN56-GCP6 (human) (UniProt Q96RT7); test: cryo-EM structure; recombinant human γ-TuRC^ΔN56-GCP6 (full-length GCP6 replaced by ΔN56-GCP6; ACTB co-expressed), fully assembled 14-spoke complex, 7.1 Å global resolution; both purified
[4] = molecular target: 2xFLAG-GCP5 (2xFLAG-TUBGCP5) (human) (UniProt Q96RT8); test: cryo-EM structure; recombinant human γ-TuRC^∆GCP2/3 (GCP2 and GCP3 omitted from the expression system), 4-spoke assembly, 7.8 Å global resolution; both purified
[5] = molecular target: GCP6 (TUBGCP6), full-length (human) (UniProt Q96RT7); test: as above

Row | binding (GCP4 (TUBGCP4) (human)) | binding [1] | binding [2] | Substance | other results
1 | binds |  |  | GCP3 (TUBGCP3) (from UniProt Q96CW5 1-907) | 
2 |  | binds |  | GCP6 (TUBGCP6), full-length (from UniProt Q96RT7 1-1819) | 
3 | binds |  |  | MZT1-GCP5 module (in the recombinant γ-TuRC) (from UniProt Q08AG7 6-82; Q96RT8 1-1024) (complex) | 

The next lines start with the substance.

Row | Substance | binding (GCP4 (TUBGCP4) (human)) | binding [1] | binding [2] | other results
4 | 2xFLAG-GCP5 (2xFLAG-TUBGCP5) (from UniProt Q96RT8 1-1024) |  |  | binds | 
5 | GCP4 (TUBGCP4) (from UniProt Q9UGJ1 1-667) |  | binds | binds | binding [3]: binds; binding (ΔN56-GCP6 (human)): binds; binding [4]: binds; binding [5]: binds
